# Experimental data: PubChem BioAssay AID743454 (Peter MacCallum Cancer Centre, 2014)
# Screen: 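Knock-downs lowering viability or raising caspase 3/7 activity in vorinostat-treated resistant cells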 (primary screen)
# Cells: human HCT116-VR colon cancer cells, selected for vorinostat resistance
# Knock-down reagent: siRNA pool against human genes, 40 nM siRNA pool
# Time to read-out: vorinostat for 24 h, read-out about 72 h after transfection
# Challenge: vorinostat at 2.5 µM final
# Read-out: 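Two measures, CellTiter-Fluor viability and luminescent caspase 3/7 activity, each as fold change against same-plate mock wells, mean of duplicates, then screen-wide robust z-score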
# Scale: viability robust z-score: higher = more viable cells than screen typical; caspase robust z-score: higher = more caspase 3/7 activity than screen typical
# Hit rule: 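Hits are knock-downs in viability class RV1/RV2 or caspase class CA1/CA2, excluding ones that killed cells in the no-drug cell-count arm; hits then retested with single siRNAs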
# The whole screen tested about 18,000 reagents; shown is a random part of them. Of all reagents, 450 (2.5%) were called active. 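Single biological run; no consistent viability z cut-off exists, so the class columns, not z-scores, define the calls.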 Entries without a mark were called inactive.
target gene,PubChem SID,viability hit class,caspase hit class,viability robust z-score,caspase robust z-score
CNGB3,SID152153071,no change,no change,0.36,-0.42
SMG8,SID134320470,no change,no change,-0.08,-0.36
DOK5,SID152147013,no change,no change,0.23,2.87
KIF20B,SID134309846,no change,no change,1.25,-0.06
AP1G2,SID134315880,no change,no change,-0.48,-0.1
NOXA1,SID134326440,no change,no change,-0.62,-0.56
SLC14A2,SID152148286,no change,no change,0.37,-0.84
NLRC4,SID134310434,no change,no change,-0.54,-0.26
IFNL3,SID134312914,no change,no change,0.81,-0.17
BCCIP,SID134317270,no change,no change,-1.09,-0.29
GSDMA,SID152155913,no change,no change,-0.28,1.48
KTI12,SID134319612,no change,no change,0.52,0.09
CPNE4,SID134313413,no change,no change,-0.86,-0.54
PRR14,SID134321952,no change,no change,-0.35,-0.48
RHNO1,SID152147587,no change,no change,-0.61,-0.77

The list goes on (2 carried over from the part before).
target gene,PubChem SID,viability hit class,caspase hit class,viability robust z-score,caspase robust z-score
PRR14,SID134321952,no change,no change,-0.35,-0.48
RHNO1,SID152147587,no change,no change,-0.61,-0.77
TKT,SID134310599,no change,no change,-0.37,1.65
NUBPL,SID152156377,no change,no change,0.45,-0.49
PLA2G2E,SID134314858,no change,no change,-0.76,-0.26
PCDHB10,SID152153679,no change,no change,1.17,-0.52
RAB4A,SID134313406,no change,no change,0.86,-0.56
AKAP14,SID135623379,no change,no change,0.86,0.34
FDFT1,SID152147886,no change,no change,-1.42,-0.43
RDH16,SID152155540,no change,no change,-1.11,-1.16
